Test results as given in paper PMC10942982.
Results are given in words; binding and its absence hold for the method and conditions named. Binding seen in cells or lysates may run through a third protein. Some entries that bind do so weakly or less than the wild type.

Amino acid sequences for entries named in this document (tags omitted). A change or cut given only in a name is not applied to a line headed by its entry. Chains listed by the source or under a name are the forms on record and can include a tag or linker.
UniProt Q8NEZ2: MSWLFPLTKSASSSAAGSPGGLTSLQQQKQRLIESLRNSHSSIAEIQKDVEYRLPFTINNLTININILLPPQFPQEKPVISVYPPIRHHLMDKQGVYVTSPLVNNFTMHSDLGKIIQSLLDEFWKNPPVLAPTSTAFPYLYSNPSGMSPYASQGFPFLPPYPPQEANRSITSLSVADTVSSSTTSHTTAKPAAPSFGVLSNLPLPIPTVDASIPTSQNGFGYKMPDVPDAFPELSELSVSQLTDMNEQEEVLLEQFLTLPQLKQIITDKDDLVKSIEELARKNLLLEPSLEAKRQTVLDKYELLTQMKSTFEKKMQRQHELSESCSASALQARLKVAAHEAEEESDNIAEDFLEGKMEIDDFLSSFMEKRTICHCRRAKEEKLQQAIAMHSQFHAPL
GFP-tagged VPS37A mutant with both 3WLFP and 137FPYL motifs mutated to DDDD (Q8NEZ2, form named): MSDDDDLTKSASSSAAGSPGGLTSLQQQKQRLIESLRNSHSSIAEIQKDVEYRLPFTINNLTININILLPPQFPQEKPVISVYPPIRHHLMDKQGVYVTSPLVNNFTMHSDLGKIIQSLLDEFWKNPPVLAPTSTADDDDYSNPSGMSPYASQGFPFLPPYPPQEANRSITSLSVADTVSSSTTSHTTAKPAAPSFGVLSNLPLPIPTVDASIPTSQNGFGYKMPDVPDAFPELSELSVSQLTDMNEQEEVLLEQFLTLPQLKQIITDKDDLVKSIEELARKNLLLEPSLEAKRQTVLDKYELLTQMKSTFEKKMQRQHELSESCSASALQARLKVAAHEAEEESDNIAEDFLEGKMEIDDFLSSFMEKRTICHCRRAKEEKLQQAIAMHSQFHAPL
UniProt Q9UK41: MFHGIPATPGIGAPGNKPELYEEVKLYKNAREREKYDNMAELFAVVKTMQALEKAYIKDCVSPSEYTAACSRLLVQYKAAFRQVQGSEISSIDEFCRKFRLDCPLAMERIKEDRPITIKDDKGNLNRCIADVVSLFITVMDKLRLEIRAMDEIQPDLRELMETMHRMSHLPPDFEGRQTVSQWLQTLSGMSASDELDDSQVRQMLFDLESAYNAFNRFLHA
UniProt Q99816: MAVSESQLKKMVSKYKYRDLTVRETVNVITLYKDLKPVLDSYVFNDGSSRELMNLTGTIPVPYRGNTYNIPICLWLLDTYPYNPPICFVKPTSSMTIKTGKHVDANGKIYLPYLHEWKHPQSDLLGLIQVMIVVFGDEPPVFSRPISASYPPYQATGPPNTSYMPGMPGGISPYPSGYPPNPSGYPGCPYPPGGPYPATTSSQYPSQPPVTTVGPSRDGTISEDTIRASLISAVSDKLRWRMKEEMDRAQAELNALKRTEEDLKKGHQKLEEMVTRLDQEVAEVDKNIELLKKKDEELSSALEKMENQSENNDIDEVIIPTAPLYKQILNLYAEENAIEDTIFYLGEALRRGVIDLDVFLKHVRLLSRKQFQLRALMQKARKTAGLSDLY

Assays:
[1] = target: GFP-tagged VPS37A mutant with both 3WLFP and 137FPYL motifs mutated to DDDD (human) (UniProt Q8NEZ2); test: co-IP; GFP-Trap beads on total cell lysates in 0.5% NP-40 lysis buffer (10 mM Tris/Cl pH 7.5, 150 mM NaCl, 0.5 mM EDTA), washed three times with lysis buffer, immunoblotting
[2] = target: GFP-tagged wildtype VPS37A (human) (UniProt Q8NEZ2); test: as above

binding [1]	binding [2]	Substance
binds	–	VPS28 (from UniProt Q9UK41 1-221)
binds	binds	TSG101 (from UniProt Q99816 1-390)
